{"source": "patent US20120122727A1", "about": "“IN VITRO METHOD FOR PREDICTING WHETHER A COMPOUND IS GENOTOXIC IN VIVO” (priority 2009, published 2012)", "tested_on": "primary mouse hepatocytes", "test": "Gene expression in primary mouse hepatocytes, GTX vs non-GTX (four-gene classifier, 24 h)", "description": "Hepatocyte cells were incubated and exposed to a compound for 24 h before being harvested for RNA isolation.\nThe results of the gene expression analysis may then be fed into a statistical software package such as R, Splus, or Microsoft Excel. […] If none or only one of these criteria were met, no point was scored.\nFor each of the four genes mentioned in the table (1700007K13RIK, GAS2L3, SPC25, DDIT4L), a statistical comparison was made between the normalized expression data for these genes. […] If none or only one of these criteria were met, no point was scored.\nFor each compound, the sum of the scores for four genes is taken. If this score is 0, a compound can be believed not to be genotoxic. If this score is 1, 2, 3 or 4, a compound is genotoxic.\nIf none or only one of these criteria were met, no point was scored.", "key": {"[1]": {"details": "24 h exposure, average of four replicates"}, "[2]": {"details": "log 2 ratio, 24 h exposure, concentration per Table 4"}}, "data": [{"smiles": "CCCCc1oc2ccccc2c1C(=O)c1cc(I)c(OCCN(CC)CC)c(I)c1", "note": "[AMD, Amiodarone]", "values": [{"measurement": "score 1700007K13RIK", "setting": "[1]", "result": 0}, {"measurement": "score DDIT4L", "setting": "[1]", "result": 0}, {"measurement": "score GAS2L3", "setting": "[1]", "result": 0}, {"measurement": "score SPC25", "setting": "[1]", "result": 0}, {"measurement": "Ratios of gene expression treated/untreated 1700007K13RIK", "setting": "[2]", "result": "−0.2612"}, {"measurement": "Ratios of gene expression treated/untreated DDIT4L", "setting": "[2]", "result": "−0.309"}, {"measurement": "Ratios of gene expression treated/untreated GAS2L3", "setting": "[2]", "result": 0.2758}, {"measurement": "Ratios of gene expression treated/untreated SPC25", "setting": "[2]", "result": "−0.4118"}, {"measurement": "Total score", "setting": "sum of scores for four genes, 0 = not genotoxic, 1, 2, 3 or 4 = genotoxic", "result": 0}]}]}
